Reference: patent US6951856B2, “Arylethene-sulfonamides” (Actelion Pharmaceuticals Ltd., priority 2000, dated 2005)
The match of structure and compound is tentative.

The chains behind the UniProt entries cited, without tags or fusion partners. Residues count along the entry.
UniProt P24530, 27-442 limits assumed: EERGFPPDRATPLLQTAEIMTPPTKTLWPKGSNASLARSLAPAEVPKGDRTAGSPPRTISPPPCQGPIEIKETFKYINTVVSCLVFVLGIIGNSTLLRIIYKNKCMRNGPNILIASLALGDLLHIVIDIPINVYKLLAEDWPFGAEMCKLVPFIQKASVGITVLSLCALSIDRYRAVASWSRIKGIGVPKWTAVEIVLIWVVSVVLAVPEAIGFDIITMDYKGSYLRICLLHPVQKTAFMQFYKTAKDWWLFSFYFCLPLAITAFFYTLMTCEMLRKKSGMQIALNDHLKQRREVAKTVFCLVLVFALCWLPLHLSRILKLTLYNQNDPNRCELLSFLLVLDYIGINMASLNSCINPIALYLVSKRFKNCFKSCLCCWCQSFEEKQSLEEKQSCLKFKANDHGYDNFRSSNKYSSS
UniProt P25101, 21-427 limits assumed: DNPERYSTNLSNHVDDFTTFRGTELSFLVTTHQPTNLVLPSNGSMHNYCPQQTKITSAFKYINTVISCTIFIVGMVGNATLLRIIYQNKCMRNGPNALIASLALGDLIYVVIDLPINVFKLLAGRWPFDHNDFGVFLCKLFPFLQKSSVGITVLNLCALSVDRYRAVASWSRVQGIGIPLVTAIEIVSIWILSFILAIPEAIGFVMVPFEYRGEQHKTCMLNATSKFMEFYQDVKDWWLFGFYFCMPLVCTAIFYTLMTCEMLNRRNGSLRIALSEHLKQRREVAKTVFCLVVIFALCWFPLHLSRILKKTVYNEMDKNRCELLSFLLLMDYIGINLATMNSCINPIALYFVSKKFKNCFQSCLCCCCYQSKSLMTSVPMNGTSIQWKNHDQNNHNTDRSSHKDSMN

What was measured:
[1] = target: human recombinant ETB receptors (Homo sapiens, UniProt P24530); experiment: Inhibition of [125I]ET-1 binding to membranes from CHO cells carrying human ETB receptors; details: read-out: IC50 ETB; CHO cell membranes, 8 pM [125I]ET-1, 2 h at 20° C.
[2] = target: human recombinant ETA receptors (Homo sapiens, UniProt P25101); experiment: Inhibition of [125I]ET-1 binding to membranes from CHO cells carrying human ETA receptors; details: read-out: IC50 ETA; CHO cell membranes, 8 pM [125I]ET-1, 2 h at 20° C.

Cc1ccc(-c2c(NS(=O)(=O)/C=C/c3ccccc3)ncnc2OCCOc2ccc(Cl)cn2)cc1
IC50 [1]: 532 nM | IC50 [2]: 52.1 nM
